Data as given in PubChem BioAssay AID652259 (Drosophila RNAi Screening Center, 2013)

Purpose: 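Knock-downs that push a Wingless-driven reporter up or down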 (primary screen)
System: Drosophila clone 8 imaginal disc epithelial cells
Knock-down reagent: long dsRNA against Drosophila genes
Challenge: pathway stimulated by co-transfected Wingless expression plasmid
Detection: 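Firefly luciferase from a tcf-site Wingless reporter, measured alongside co-transfected Renilla luciferase that tracks transfection; pathway stimulated by a Wingless plasmid; the firefly-to-Renilla ratio is not deposited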
Scale: firefly reporter light: higher = more Wg reporter light, before normalisation; Renilla control light: higher = more transfected or surviving cells
Active means: 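a knock-down is a candidate when at least two out of four statistical tests show it departing from its plate mean; one test alone signals a weak candidate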
Meaning of the calls: active = candidate regulator (raises or lowers reporter); inactive = not a candidate
In all, the deposit lists about 22,000 reagents; shown is an unselected part of those that have a named target and a result. Over the whole deposit, 233 (1.1%) were called active. 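Light values are raw, unnormalised plate reads; the ratio scores behind the reporter calls were not deposited.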 Entries without a mark were called inactive. A plus sign joins genes that one reagent is predicted to hit. Not given: the amount of reagent, the time to read-out, the dose of the treatment.

| predicted target | amplicon | firefly reporter light, replicate 1 | firefly reporter light, replicate 2 | Renilla control light, replicate 1 | Renilla control light, replicate 2 |
| --- | --- | --- | --- | --- | --- |
| CG5003 | DRSC15694 | 3223 | 4739 | 1325 | 1952 |
| nbs | DRSC11373 | 5029 | – | 2260 | – |
| CG7376 | DRSC10829 | 4566 | – | 2145 | – |
| CG11710 | DRSC20485 | 24696 | – | 11453 | – |
| Ctu2 | DRSC02024 | 15074 | – | 4793 | – |
| Hsf | DRSC07443 | 13344 | – | 4226 | – |
| CG15399 | DRSC00413 | 2758 | 6480 | 1432 | 2696 |
| rau | DRSC03125 | 5248 | – | 3178 | – |
| chico | DRSC03531 | 6384 | – | 2124 | – |
| Rnp4F | DRSC18706 | 2603 | 7232 | 812 | 1912 |
| CG9316 | DRSC03195 | 2544 | 8377 | 802 | 3096 |
| CG4115 | DRSC15545 | 14640 | – | 3226 | – |
| maf-S | DRSC07348 | 4036 | – | 2426 | – |
| Eig71Ec | DRSC11150 | 6138 | – | 2740 | – |
| CG43658 | DRSC19455 | 19592 | – | 7988 | – |
| CG43658 | DRSC20111 | 25724 | – | 8963 | – |
| CG18262 | DRSC18149 | 24429 | – | 10176 | – |
| Or59c | DRSC04633 | 3200 | 4906 | 756 | 2371 |
| saturn | DRSC09303 | 4088 | – | 1523 | – |
| CG14567 | DRSC11728 | 15384 | – | 5156 | – |
| CG2652 | DRSC18501 | 3843 | 10205 | 1654 | 3361 |
| CG2652 | DRSC22576 | 8.15e5 | 7.67e5 | 3.69e5 | 3.54e5 |
| wake | DRSC16148 | 10004 | – | 11738 | – |
| wake | DRSC16149 | 10229 | – | 11707 | – |
| mia | DRSC12137 | 7261 | – | 1746 | – |
| CG14933 + CG42486 | DRSC02415 | 2904 | 11764 | 1831 | 5305 |
| Ntl | DRSC03003 | 4426 | – | 1778 | – |
| CG2915 | DRSC06842 | 10032 | – | 3101 | – |
| lab | DRSC12627 | 12729 | – | 1728 | – |
| Syt14 | DRSC12331 | 18213 | – | 5012 | – |
| CG3457 | DRSC18509 | 2332 | 8000 | 1360 | 2840 |
| smo | DRSC00837 | 7872 | – | 3845 | – |
| amrt | DRSC19378 | 13075 | – | 9584 | – |
| CG13155 | DRSC06280 | 6264 | – | 2531 | – |
| CG7650 | DRSC10898 | 9593 | 6.76e5 | 5449 | 2.44e5 |
| CG6984 | DRSC07013 | 13489 | – | 4272 | – |
| beta-Spec | DRSC20311 | 16570 | – | 10221 | – |
| haf | DRSC00381 | 1511 | 6970 | 669 | 2102 |
| CG14982 | DRSC08440 | 3621 | – | 712 | – |
| CG33268 | DRSC10143 | 7760 | – | 2612 | – |

Next part (9 carried over from the part before).
| predicted target | amplicon | firefly reporter light, replicate 1 | firefly reporter light, replicate 2 | Renilla control light, replicate 1 | Renilla control light, replicate 2 |
| --- | --- | --- | --- | --- | --- |
| smo | DRSC00837 | 7872 | – | 3845 | – |
| amrt | DRSC19378 | 13075 | – | 9584 | – |
| CG13155 | DRSC06280 | 6264 | – | 2531 | – |
| CG7650 | DRSC10898 | 9593 | 6.76e5 | 5449 | 2.44e5 |
| CG6984 | DRSC07013 | 13489 | – | 4272 | – |
| beta-Spec | DRSC20311 | 16570 | – | 10221 | – |
| haf | DRSC00381 | 1511 | 6970 | 669 | 2102 |
| CG14982 | DRSC08440 | 3621 | – | 712 | – |
| CG33268 | DRSC10143 | 7760 | – | 2612 | – |
| EMC6 | DRSC14386 | 19031 | – | 17824 | – |
| Use1 | DRSC10180 | 1306 | 9797 | 1469 | 4085 |
| CG42841 | DRSC07962 | 2091 | – | 1148 | – |
| CG33120 | DRSC02073 | 9824 | – | 2298 | – |
| CG46298 | DRSC06222 | 3820 | 13152 | 540 | 3564 |
| Adk3 | DRSC05917 | 19096 | – | 5451 | – |
| asRNA:CR43159 + yellow-k | DRSC10851 | 6258 | – | 3328 | – |
| Dic61B | DRSC08588 | 8467 | – | 3185 | – |
| GstS1 | DRSC07436 | 16433 | – | 3245 | – |
| trv | DRSC13846 | 4176 | – | 1842 | – |
| trv | DRSC14559 | 9634 | – | 2193 | – |
| trv | DRSC14560 | 8940 | – | 3849 | – |
| trv | DRSC14561 | 12121 | – | 4871 | – |
| CG1314 | DRSC20495 | 2765 | 7872 | 1152 | 2976 |
| Mob2 | DRSC09117 | 4389 | – | 354 | – |
| Mob2 | DRSC09119 | 3460 | – | 1436 | – |
| Mob2 | DRSC09856 | 8406 | – | 1908 | – |
| CG15435 | DRSC00450 | 1241 | 2620 | 310 | 1274 |
| Pi3K21B | DRSC00771 | 4784 | – | 2721 | – |
| milt | DRSC00965 | 15504 | – | 7129 | – |
| milt | DRSC00966 | 16480 | – | 8073 | – |
| milt | DRSC02281 | 18852 | – | 7477 | – |
| polyph | DRSC06254 | 2592 | 8233 | 810 | 2848 |
| bic | DRSC07584 | 15589 | – | 3810 | – |
| CG34214 | DRSC04490 | 9968 | – | 2957 | – |
| CG8034 | DRSC20076 | 2944 | 5821 | 661 | 1714 |
| Tapdelta | DRSC05946 | 9752 | – | 3064 | – |
| Lcp65Ad | DRSC11211 | 1323 | 8644 | 1056 | 3768 |
| CG17325 + CG42305 | DRSC02602 | 2614 | 10467 | 588 | 3651 |
| cyr | DRSC18017 | 19760 | – | 10264 | – |
| cyr | DRSC18018 | 20029 | – | 9032 | – |
| cyr | DRSC18021 | 19961 | – | 7921 | – |
| Sp1 | DRSC17622 | 3427 | – | 1218 | – |
| Sp1 | DRSC18717 | 24000 | – | 9065 | – |
| Ibf1 | DRSC16419 | 16758 | – | 4732 | – |
| Sym | DRSC12301 | 3862 | – | 2244 | – |
| Svip | DRSC08982 | 1860 | – | 588 | – |
| CG7329 | DRSC03046 | 2820 | 6955 | 1445 | 2329 |
| sowi | DRSC12558 | 7548 | – | 1780 | – |
| CG10713 | DRSC09786 | 7508 | – | 1623 | – |
| Peritrophin-15a | DRSC02636 | 2220 | 8297 | 1113 | 4593 |
| Lerp | DRSC14750 | 5525 | – | 2200 | – |
| Lerp | DRSC14751 | 10416 | – | 2912 | – |
| Lerp | DRSC16030 | 6108 | – | 3328 | – |
| Lerp | DRSC16031 | 6835 | – | 2800 | – |
| CG11779 | DRSC14384 | 2484 | 6084 | 568 | 2340 |
| sta | DRSC18838 | 19848 | – | 14150 | – |
| CG31269 | DRSC15744 | 17012 | – | 3078 | – |
| CG31219 | DRSC15140 | 16176 | – | 2816 | – |
| CG6345 | DRSC16024 | 15168 | – | 2971 | – |
| CCT8 | DRSC07130 | 6203 | – | 1856 | – |
| CG14374 | DRSC14834 | 9244 | – | 2269 | – |
| CG3792 | DRSC02725 | 2068 | 5465 | 780 | 2072 |
